Some results were stated once for a whole list of compounds, not compound by compound.
Legend:
Assay type in all cases: in vivo
[1] = test system: beet armyworm (Spodoptera exigua); experiment: Test C: control of beet armyworm, foliar spray on corn; conditions: sprayed at 50 ppm, visually rated after 6 days
[2] = test system: fall armyworm (Spodoptera frugiperda); experiment: Test A: control of fall armyworm, foliar spray on corn; conditions: sprayed at 50 ppm, visually assessed after 6 days
[3] = test system: tobacco budworm (Heliothis virescens); experiment: Test B: control of tobacco budworm, foliar spray on cotton; conditions: sprayed at 50 ppm, visually rated after 6 days

Measured: feeding damage (excellent levels of plant protection)

COC(CNC(=O)c1cccc(C)c1NC(=O)c1cc(C(F)(F)F)nn1-c1ccccc1Cl)OC [Compound 273]
≤ 10%: [1] | [2] | [3]

COC(CCNC(=O)c1cccc(C)c1NC(=O)c1cc(C(F)(F)F)nn1-c1ccccc1Cl)OC [Compound 275]
≤ 10%: [1] | [2] | [3]

CNC(=O)c1cccc(C)c1NC(=O)c1cc(C(F)(F)F)nn1-c1c(Cl)cccc1Cl [Compound 276]
≤ 10%: [1] | [2] | [3]

CCNC(=O)c1cccc(C)c1NC(=O)c1cc(C(F)(F)F)nn1-c1c(Cl)cccc1Cl [Compound 277]
≤ 10%: [1] | [2] | [3]

Cc1cccc(C(=O)NC(C)(C)C)c1NC(=O)c1cc(C(F)(F)F)nn1-c1c(Cl)cccc1Cl [Compound 278]
≤ 10%: [1] | [2] | [3]

CC(C)(C)NC(=O)c1cccc(Cl)c1NC(=O)c1cc(C(F)(F)F)nn1-c1c(Cl)cccc1Cl [Compound 279]
≤ 10%: [1] | [2] | [3]

Cc1cccc(C(=O)NC(C)C)c1NC(=O)c1ccnn1-c1ccccc1Cl [Compound 280]
≤ 10%: [1] | [2] | [3]

Cc1ccccc1-n1nccc1C(=O)Nc1c(C)cccc1C(=O)NC(C)C [Compound 281]
≤ 10%: [1] | [2] | [3]

Cc1cccc(C(=O)NC(C)C)c1NC(=O)c1ccnn1-c1ccccc1F [Compound 282]
≤ 10%: [1] | [2] | [3]

Cc1cccc(C(=O)NCCC#N)c1NC(=O)c1cc(C(F)(F)F)nn1-c1ccccc1Cl [Compound 284]
≤ 10%: [1] | [2] | [3]

Cc1cccc(C(=O)NC(C)C)c1NC(=O)c1cc(Br)nn1-c1c(Cl)cccc1Cl [Compound 287]
≤ 10%: [1] | [2] | [3]

Cc1cccc(C(=O)NC(C)(C)C)c1NC(=O)c1cc(Br)nn1-c1c(Cl)cccc1Cl [Compound 288]
≤ 10%: [1] | [2] | [3]

CC(C)NC(=O)c1cccc(Cl)c1NC(=O)c1cc(Br)nn1-c1c(Cl)cccc1Cl [Compound 289]
≤ 10%: [1] | [2] | [3]

CC(C)(C)NC(=O)c1cccc(Cl)c1NC(=O)c1cc(Br)nn1-c1c(Cl)cccc1Cl [Compound 290]
≤ 10%: [1] | [2] | [3]

Cc1cccc(C(=O)NC(C)C)c1NC(=O)c1cc(Br)nn1-c1ccc(F)cc1Cl [Compound 291]
≤ 10%: [1] | [2] | [3]

Cc1cccc(C(=O)NC(C)(C)C)c1NC(=O)c1cc(Br)nn1-c1ccc(F)cc1Cl [Compound 292]
≤ 10%: [1] | [2] | [3]

CC(C)NC(=O)c1cccc(Cl)c1NC(=O)c1cc(Br)nn1-c1ccc(F)cc1Cl [Compound 293]
≤ 10%: [1] | [2] | [3]

CC(C)(C)NC(=O)c1cccc(Cl)c1NC(=O)c1cc(Br)nn1-c1ccc(F)cc1Cl [Compound 294]
≤ 10%: [1] | [2] | [3]

CC(C)NC(=O)c1cccc(I)c1NC(=O)c1cc(Br)nn1-c1ccc(F)cc1Cl [Compound 295]
≤ 10%: [1] | [2] | [3]

CCNC(=O)c1cccc(C)c1NC(=O)c1ccnn1-c1ncccc1Cl [Compound 300]
≤ 10%: [1] | [2] | [3]

Cc1cc(C)c(NC(=O)c2cc(C(F)(F)F)nn2-c2ccccc2Cl)c(C(=O)NC(C)C)c1 [Compound 320]
≤ 10%: [1] | [2] | [3]

Cc1cccc(C(=O)NC(C)C)c1NC(=O)c1cc(C(F)(F)F)nn1-c1cc(C#N)ccc1Cl [Compound 321]
≤ 10%: [1] | [2] | [3]

Cc1cccc(C(=O)NC(C)C)c1NC(=O)c1ccnn1-c1ncccc1Cl [Compound 322]
≤ 10%: [1] | [2] | [3]

Cc1cc(Br)cc(C(=O)NC(C)(C)C)c1NC(=O)c1cc(C(F)(F)F)nn1-c1c(Cl)cccc1Cl [Compound 325]
≤ 10%: [1] | [2] | [3]

CNC(=O)c1cc(Br)cc(C)c1NC(=O)c1cc(C(F)(F)F)nn1-c1c(Cl)cccc1Cl [Compound 326]
≤ 10%: [1] | [2] | [3]

Cc1cc(Br)cc(C(=O)NCC#N)c1NC(=O)c1cc(C(F)(F)F)nn1-c1c(Cl)cccc1Cl [Compound 327]
≤ 10%: [1] | [2] | [3]

CC(C)NC(=O)c1cc(Cl)cc(Cl)c1NC(=O)c1cc(C(F)(F)F)nn1-c1ccccc1Cl [Compound 328]
≤ 10%: [1] | [2] | [3]

Cc1cccc(C(=O)NC(C)C)c1NC(=O)c1cc(C(F)(F)F)nn1-c1cc(Cl)ccc1Cl [Compound 341]
≤ 10%: [1] | [2] | [3]

COc1cc(C(=O)Nc2c(C)cccc2C(=O)NC(C)C)n(-c2ccccc2Cl)n1 [Compound 364]
≤ 10%: [1] | [2] | [3]

Cc1cc(C(=O)Nc2c(C)cccc2C(=O)NC(C)C)n(-c2ccccc2Cl)n1 [Compound 366]
≤ 10%: [1] | [2] | [3]

Cc1cc(C(=O)Nc2c(Cl)cccc2C(=O)NC(C)C)n(-c2c(Cl)cccc2Cl)n1 [Compound 367]
≤ 10%: [1] | [2] | [3]

CCc1nccnc1-n1nc(C(F)(F)F)cc1C(=O)Nc1c(C)cccc1C(=O)NC(C)C [Compound 384]
≤ 10%: [1] | [2] | [3]

O=C(NCC(F)(F)F)c1cccc(Cl)c1NC(=O)c1cc(C(F)(F)F)nn1-c1ccccc1Cl [Compound 387]
≤ 10%: [1] | [2] | [3]

Cc1cccc(C(=O)NC(C)C)c1NC(=O)c1cc(Cl)nn1-c1ccccc1Cl [Compound 390]
≤ 10%: [1] | [2] | [3]

CC(C)NC(=O)c1cccc(Cl)c1NC(=O)c1cc(Cl)nn1-c1ccccc1Cl [Compound 391]
≤ 10%: [1] | [2] | [3]

Cc1cccc(C(=O)NC(C)C)c1NC(=O)c1cc(I)nn1-c1ccccc1Cl [Compound 392]
≤ 10%: [1] | [2] | [3]

CC(C)NC(=O)c1cccc(Cl)c1NC(=O)c1cc(I)nn1-c1ccccc1Cl [Compound 393]
≤ 10%: [1] | [2] | [3]

Cc1cccc(C(=O)NC(C)CCl)c1NC(=O)c1cc(C(F)(F)F)nn1-c1ccccc1Cl (stereo not drawn) [Compound 394]
≤ 10%: [1] | [2] | [3]

Cc1cccc(C(N)=O)c1NC(=O)c1cc(C(F)(F)F)nn1-c1ccccc1Cl [Compound 401]
≤ 10%: [1] | [2] | [3]

Cc1cccc(C(=O)NCC(C)Cl)c1NC(=O)c1cc(C(F)(F)F)nn1-c1ccccc1Cl (stereo not drawn) [Compound 402]
≤ 10%: [1] | [2] | [3]

Reference: patent US7696233B2, “Method for controlling particular insect pests by applying anthranilamide compounds” (E. I. du Pont de Nemours and Company, priority 2001, dated 2010)
